Reference: patent publication US10125098B2, “Therapeutic compounds and methods of use thereof” (GENENTECH, INC., priority 2014, dated 2018)
Structures were worked out from names or drawings and are uncertain.

Chains of the proteins cited; added tags and fusions are not shown. Residues count along the entry.
UniProt Q15858, 1-1977 isoform 3: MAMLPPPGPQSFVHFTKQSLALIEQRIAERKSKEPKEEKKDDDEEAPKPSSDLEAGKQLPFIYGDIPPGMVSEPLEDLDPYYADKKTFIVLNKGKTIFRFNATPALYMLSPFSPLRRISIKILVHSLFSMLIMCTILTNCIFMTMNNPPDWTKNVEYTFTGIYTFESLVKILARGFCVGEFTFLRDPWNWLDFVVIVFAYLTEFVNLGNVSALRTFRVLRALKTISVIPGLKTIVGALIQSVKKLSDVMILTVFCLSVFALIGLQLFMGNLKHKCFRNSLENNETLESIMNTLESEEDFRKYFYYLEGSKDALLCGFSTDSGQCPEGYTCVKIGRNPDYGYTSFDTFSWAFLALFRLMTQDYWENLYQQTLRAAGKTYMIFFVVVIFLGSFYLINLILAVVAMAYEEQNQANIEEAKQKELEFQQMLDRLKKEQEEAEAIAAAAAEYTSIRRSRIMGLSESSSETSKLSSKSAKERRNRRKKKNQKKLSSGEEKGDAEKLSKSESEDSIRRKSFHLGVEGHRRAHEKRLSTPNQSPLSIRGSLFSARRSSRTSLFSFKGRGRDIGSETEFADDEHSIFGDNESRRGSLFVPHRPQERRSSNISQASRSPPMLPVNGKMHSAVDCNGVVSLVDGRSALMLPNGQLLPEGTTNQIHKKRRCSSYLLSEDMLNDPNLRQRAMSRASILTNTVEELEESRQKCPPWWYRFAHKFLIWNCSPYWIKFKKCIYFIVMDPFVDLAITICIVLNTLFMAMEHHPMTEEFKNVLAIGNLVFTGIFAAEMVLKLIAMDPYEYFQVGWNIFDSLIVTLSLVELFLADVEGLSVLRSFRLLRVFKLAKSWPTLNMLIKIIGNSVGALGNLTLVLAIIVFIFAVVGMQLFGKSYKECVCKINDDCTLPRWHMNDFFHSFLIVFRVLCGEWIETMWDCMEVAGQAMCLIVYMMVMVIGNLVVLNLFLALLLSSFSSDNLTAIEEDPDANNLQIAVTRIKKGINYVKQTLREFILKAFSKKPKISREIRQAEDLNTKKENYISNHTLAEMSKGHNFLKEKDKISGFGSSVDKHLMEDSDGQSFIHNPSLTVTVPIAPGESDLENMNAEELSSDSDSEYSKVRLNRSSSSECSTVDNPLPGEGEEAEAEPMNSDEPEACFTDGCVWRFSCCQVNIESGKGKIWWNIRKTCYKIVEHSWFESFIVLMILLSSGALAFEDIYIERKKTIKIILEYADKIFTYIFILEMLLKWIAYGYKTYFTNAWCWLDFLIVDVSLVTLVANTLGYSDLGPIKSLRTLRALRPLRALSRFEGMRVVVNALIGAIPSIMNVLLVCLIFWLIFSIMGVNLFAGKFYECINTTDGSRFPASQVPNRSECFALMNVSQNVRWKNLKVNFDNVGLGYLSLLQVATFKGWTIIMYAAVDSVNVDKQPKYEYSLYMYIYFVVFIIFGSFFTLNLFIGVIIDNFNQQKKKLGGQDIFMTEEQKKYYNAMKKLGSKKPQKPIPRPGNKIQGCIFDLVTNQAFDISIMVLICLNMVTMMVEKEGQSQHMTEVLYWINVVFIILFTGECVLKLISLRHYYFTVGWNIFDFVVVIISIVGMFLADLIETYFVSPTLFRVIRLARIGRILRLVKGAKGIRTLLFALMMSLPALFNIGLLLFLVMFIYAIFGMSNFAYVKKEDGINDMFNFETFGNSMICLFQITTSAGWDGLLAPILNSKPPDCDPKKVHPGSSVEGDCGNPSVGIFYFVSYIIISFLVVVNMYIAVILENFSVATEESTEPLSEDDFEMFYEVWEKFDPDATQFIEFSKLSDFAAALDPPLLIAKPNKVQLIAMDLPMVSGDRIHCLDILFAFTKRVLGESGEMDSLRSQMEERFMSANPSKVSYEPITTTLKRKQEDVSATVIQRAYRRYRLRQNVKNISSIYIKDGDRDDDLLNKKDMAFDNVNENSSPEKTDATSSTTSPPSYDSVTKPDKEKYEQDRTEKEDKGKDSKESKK
UniProt Q14524, whole entry: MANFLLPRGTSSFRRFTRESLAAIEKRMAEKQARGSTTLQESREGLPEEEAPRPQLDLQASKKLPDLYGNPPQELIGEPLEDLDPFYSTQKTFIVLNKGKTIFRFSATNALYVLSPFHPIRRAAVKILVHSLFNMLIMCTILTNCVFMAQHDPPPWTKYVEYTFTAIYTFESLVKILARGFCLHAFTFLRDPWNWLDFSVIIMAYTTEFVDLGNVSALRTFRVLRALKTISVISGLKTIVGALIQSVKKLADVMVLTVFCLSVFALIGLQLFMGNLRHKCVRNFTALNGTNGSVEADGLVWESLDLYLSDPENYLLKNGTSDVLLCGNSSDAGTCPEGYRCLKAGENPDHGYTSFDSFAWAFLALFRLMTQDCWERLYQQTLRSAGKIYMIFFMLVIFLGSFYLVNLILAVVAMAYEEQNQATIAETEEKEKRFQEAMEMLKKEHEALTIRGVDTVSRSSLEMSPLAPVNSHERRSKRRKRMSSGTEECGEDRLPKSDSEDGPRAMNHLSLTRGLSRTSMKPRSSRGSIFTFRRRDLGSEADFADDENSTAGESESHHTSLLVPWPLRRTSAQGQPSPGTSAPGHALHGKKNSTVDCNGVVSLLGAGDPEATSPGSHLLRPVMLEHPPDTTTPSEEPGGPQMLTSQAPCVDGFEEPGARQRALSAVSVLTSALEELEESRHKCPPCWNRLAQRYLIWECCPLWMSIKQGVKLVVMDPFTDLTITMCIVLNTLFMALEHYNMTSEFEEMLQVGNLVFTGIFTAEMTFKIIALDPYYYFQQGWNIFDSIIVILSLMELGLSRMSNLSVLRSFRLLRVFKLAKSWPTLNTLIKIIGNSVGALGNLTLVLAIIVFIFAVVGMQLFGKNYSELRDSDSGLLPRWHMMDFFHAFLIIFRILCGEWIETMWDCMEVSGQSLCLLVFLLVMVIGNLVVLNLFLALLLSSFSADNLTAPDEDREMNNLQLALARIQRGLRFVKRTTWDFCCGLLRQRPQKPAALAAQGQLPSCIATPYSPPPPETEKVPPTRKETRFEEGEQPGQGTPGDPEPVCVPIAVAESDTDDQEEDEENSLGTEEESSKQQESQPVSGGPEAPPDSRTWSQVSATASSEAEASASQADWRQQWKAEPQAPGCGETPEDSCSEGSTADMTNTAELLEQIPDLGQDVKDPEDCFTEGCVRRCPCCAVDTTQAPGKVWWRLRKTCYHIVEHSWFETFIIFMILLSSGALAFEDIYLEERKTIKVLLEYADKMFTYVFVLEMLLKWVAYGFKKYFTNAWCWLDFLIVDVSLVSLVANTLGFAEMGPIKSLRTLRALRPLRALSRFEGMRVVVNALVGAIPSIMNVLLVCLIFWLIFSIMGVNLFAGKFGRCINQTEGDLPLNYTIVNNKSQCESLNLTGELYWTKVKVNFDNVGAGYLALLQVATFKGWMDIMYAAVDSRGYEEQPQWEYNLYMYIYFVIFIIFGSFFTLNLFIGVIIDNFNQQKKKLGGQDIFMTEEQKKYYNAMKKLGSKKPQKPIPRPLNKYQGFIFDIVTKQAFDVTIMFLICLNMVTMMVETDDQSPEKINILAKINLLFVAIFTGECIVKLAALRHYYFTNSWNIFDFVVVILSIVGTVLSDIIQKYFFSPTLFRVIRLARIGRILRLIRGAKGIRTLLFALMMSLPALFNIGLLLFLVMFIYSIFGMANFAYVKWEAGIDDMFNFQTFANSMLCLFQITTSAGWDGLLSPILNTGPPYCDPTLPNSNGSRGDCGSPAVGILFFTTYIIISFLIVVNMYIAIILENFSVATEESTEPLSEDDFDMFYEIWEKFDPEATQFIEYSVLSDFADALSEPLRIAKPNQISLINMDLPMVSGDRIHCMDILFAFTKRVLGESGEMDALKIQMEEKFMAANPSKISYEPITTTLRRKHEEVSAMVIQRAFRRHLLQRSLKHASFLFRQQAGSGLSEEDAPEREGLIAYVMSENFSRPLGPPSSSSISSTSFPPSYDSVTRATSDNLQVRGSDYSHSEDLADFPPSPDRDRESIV
UniProt Q07699, 19-218 partner limits assumed: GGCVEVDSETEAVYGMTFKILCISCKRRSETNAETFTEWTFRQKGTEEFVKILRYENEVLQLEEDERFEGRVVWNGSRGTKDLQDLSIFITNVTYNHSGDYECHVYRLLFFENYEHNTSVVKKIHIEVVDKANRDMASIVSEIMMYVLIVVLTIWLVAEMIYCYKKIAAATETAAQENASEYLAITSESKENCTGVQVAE

Columns and labels:
human NaV1.7 = human NaV1.7 (Homo sapiens, UniProt Q15858); assay: Patch voltage clamp electrophysiology assay (EP), NaV1.7; format: cell-based; conditions: read-out: Nav1.7; HEK-293 cells stably expressing NaV1.7 with β1 subunit; whole-cell patch clamp, membrane potential −60 mV (inactivated state)
hNav1.7 = hNav1.7 (Homo sapiens, UniProt Q15858); assay: Tritiated compound binding (LBA) to membranes from cells expressing hNav1.7 and the β1 subunit, competitive binding; conditions: read-out: LBA; competitive binding vs 100 pM [3H]compound, 18 h, room temperature, membranes with hNav1.7 and β1 subunit
human NaV1.5 = human NaV1.5 (Homo sapiens, UniProt Q14524); assay: Patch voltage clamp electrophysiology assay (EP), NaV1.5; conditions: read-out: Nav1.5; HEK-293 cells stably expressing NaV1.5 with β1 subunit; whole-cell patch clamp, membrane potential −60 mV (inactivated state)

Row | Structure (SMILES) | IC50 (human NaV1.7) | IC50 (hNav1.7) | IC50 (human NaV1.5)
1 | C[C@H]1OCN(C(=O)c2cc(C3CC3)c(COc3cc(Cl)cc(Cl)c3)cc2F)[C@@H]1C(=O)O | 20 nM | 9.2 nM | 
2 | O=C(O)[C@@H]1C[C@@H](F)CN1C(=O)c1cc(C2CC2)c(OCC2CCN(C(c3cc(Cl)cc(Cl)c3)C(F)(F)F)CC2)cc1F (some centres unmarked) | 310 nM | 16 nM | 11000 nM
3 | O=C(O)[C@@H]1C2CC(C2)N1C(=O)c1cc(C2CC2)c(OCC23CC4CC(CC(C4)C2)C3)cc1F | 1600 nM | 190 nM | 11000 nM
